Data as given in PubChem BioAssay AID1259405 (NCATS, 2018)

Test: 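Knock-downs that lift recombinant protein yield in hamster ovary cells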 (primary screen)
Cell system: Chinese hamster CHO-K1 ovary cells with stable secreted eGFP expression
Reagents: single siRNA against mouse genes, 0.8 pmol siRNA per well (2 µl of 400 nM stock)
Timing: 3 days
Detection: 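Percent of the per-plate non-targeting control median for intracellular GFP per well by laser scanning cytometry and for cell viability by ATP luminescence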
Scale: GFP, % of control: higher = more GFP per well, higher productivity
Active means: 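a knock-down is called active if GFP reaches 120% or more of non-targeting control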
In all, the deposit lists about 50,000 reagents; this is a part drawn at random. In the full data, about 4,000 (8%) are marked active. 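Mouse siRNA library applied to hamster cells; one well for each siRNA.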 Entries without a mark were called inactive. The numbers tell different reagents against one gene apart. Further read-outs or replicates are left out here. Reagent sequences are not shown.

GFP, % of control, by target and reagent
Slc16a4: #1 99.7; #2 58.3; #3 93.5
Tradd: #1 66.2; #2 40; #3 106
Ttc32: #1 98.2; #2 127 (active); #3 91.2
Nat8f4: #1 51.2; #2 58.1; #3 36.6
Trim66: #1 81.3; #2 43.4; #3 86.7
Gba2: #1 119; #2 67.5; #3 69
Nudt16l1: #1 124 (active); #2 89.1; #3 53.8
Rpap3: #1 36.2; #2 81.2; #3 109
Dhodh: #1 117; #2 46.3; #3 82.2
Chia1: #1 88.7; #2 71.2; #3 46.4
Gal: #1 69.3; #2 99; #3 80.5
Psma3: #1 11.8; #2 7.37; #3 36.6
Pmp22: #1 96.8; #2 41.8; #3 54.4
Zp3: #1 86.8; #2 90.3; #3 130 (active)
Eef1akmt1: #1 56.8; #2 18.5; #3 61.8
Or2y15: #1 53.3; #2 114; #3 86.7
Krt12: #1 159 (active); #2 98.3
Agbl5: #1 66.9; #2 89.6; #3 54.5
Dlk2: #1 86.6; #2 89.8; #3 102
Fpr3: #1 105; #2 75.9; #3 74
Gm6116: #1 73.1; #2 55.7; #3 167 (active)
Gstt1: #1 88.6; #2 67.7; #3 40.5
Tmc8: #1 95.4; #2 92.5; #3 104
Pithd1: #1 58.2; #2 56.2; #3 86.7
Hk2: #1 127 (active)
Senp7: #1 96.6; #2 107; #3 96.7
Cdk16: #1 88.1
Uhrf1: #1 55.7; #2 62.8; #3 64.8
Abca14: #1 88.4; #2 51; #3 81
Lyst: #1 86.9; #2 87.7; #3 54.1

Looked up above:
Slc16a4 #1, GFP, % of control: 99.7
Value for Hk2 in “GFP, % of control”: 127 (active)
Result of Tradd #3 under “GFP, % of control”: 106
For “GFP, % of control”, Lyst #3 shows 54.1
Entry of Tmc8 #2 in “GFP, % of control”: 92.5
Tradd #2, GFP, % of control → 40
